{"source": "paper PMC10817852", "about": "“Vascular injury activates the ELK1/SND1/SRF pathway to promote vascular smooth muscle cell proliferative phenotype and neointimal hyperplasia”", "biological_target": "T1, Staphylococcal nuclease domain-containing protein 1 (SND1), endogenous (mouse (endogenous in primary VSMCs)) (UniProt Q78PY7)", "T1 sequence": "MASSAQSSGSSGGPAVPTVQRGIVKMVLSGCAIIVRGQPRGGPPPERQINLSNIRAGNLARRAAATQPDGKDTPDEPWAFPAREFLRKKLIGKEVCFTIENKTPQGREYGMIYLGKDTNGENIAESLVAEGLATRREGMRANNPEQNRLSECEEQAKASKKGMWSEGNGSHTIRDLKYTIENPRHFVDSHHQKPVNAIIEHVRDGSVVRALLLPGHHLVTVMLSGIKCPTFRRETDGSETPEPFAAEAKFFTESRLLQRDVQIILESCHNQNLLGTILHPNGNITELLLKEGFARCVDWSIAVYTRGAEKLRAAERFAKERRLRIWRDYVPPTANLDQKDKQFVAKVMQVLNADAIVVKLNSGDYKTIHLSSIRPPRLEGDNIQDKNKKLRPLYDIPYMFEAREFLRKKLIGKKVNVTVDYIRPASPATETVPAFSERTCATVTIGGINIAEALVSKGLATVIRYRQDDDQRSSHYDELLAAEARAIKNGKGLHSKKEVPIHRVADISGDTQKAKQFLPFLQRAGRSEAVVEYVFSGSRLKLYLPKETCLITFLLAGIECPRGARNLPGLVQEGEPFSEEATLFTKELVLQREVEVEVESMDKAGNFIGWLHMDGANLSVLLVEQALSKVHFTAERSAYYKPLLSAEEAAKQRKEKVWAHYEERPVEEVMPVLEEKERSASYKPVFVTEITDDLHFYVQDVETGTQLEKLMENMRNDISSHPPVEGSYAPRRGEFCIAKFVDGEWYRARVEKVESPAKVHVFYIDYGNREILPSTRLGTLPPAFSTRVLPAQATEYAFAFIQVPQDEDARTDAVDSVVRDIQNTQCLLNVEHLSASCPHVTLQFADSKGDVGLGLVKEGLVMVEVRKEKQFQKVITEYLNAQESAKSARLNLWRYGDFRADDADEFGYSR", "assay": "affinity purification with mass spectrometry; SND1 antibody on protein A/G agarose beads, 2 mg total lysate of primary VSMCs, 4 °C; eluate on SDS-PAGE, silver stained, bands excised for LC-MS/MS; IgG as negative control", "note": "These are yes or no findings as the source states them, for the method shown. Binding seen in cells or lysates may run through a third protein. A yes stands for co-enrichment or nearness to the bait. Other partners may have been found."}
{"binder": "Serum response factor (SRF), endogenous (protein, UniProt Q9JM73 1-504) MLPSQAGAAAALGRGSALGGNLNRTPTGRPGGGGGTRGANGGRVPGNGAGLGQSRLEREAAAAAAPTAGALYSGSEGDSESGEEEELGAERRGLKRSLSEMELGVVVGGPEAAAAAAGGYGPVSGAVSGAKPGKKTRGRVKIKMEFIDNKLRRYTTFSKRKTGIMKKAYELSTLTGTQVLLLVASETGHVYTFATRKLQPMITSETGKALIQTCLNSPDSPPRSDPTTDQRMSATGFEEPDLTYQVSESDSSGETKDTLKPAFTVTNLPGTTSTIQTAPSTSTTMQVSSGPSFPITNYLAPVSASVSPSAVSSANGTVLKSTGSGPVSSGGLMQLPTSFTLMPGGAVAQQVPVQAIHVHQAPQQASPSRDSSTDLTQTSSSGTVTLPATIMTSSVPTTVGGHMMYPSPHAVMYAPTSGLADGSLTVLNAFSQAPSTMQVSHSQVQEPGGVPQVFLTAPSGTVQIPVSAVQLHQMAVIGQQAGSSSNLTELQVVNLDATHSTKSE", "values": [{"measurement": "binding", "result": "binds"}]}
